For this test, the target named is extradomain-B fibronectin (EDB-FN) produced by TGFbeta-induced 4T1 cells (UniProt P11276). Nature of the test: fluorescence staining of TGFbeta induced 4T1 cells in culture.

Protein sequences, listed by entry. Tags and fused reporters are not part of them. Residues count along the entry.
UniProt P11276, residues 33-2477: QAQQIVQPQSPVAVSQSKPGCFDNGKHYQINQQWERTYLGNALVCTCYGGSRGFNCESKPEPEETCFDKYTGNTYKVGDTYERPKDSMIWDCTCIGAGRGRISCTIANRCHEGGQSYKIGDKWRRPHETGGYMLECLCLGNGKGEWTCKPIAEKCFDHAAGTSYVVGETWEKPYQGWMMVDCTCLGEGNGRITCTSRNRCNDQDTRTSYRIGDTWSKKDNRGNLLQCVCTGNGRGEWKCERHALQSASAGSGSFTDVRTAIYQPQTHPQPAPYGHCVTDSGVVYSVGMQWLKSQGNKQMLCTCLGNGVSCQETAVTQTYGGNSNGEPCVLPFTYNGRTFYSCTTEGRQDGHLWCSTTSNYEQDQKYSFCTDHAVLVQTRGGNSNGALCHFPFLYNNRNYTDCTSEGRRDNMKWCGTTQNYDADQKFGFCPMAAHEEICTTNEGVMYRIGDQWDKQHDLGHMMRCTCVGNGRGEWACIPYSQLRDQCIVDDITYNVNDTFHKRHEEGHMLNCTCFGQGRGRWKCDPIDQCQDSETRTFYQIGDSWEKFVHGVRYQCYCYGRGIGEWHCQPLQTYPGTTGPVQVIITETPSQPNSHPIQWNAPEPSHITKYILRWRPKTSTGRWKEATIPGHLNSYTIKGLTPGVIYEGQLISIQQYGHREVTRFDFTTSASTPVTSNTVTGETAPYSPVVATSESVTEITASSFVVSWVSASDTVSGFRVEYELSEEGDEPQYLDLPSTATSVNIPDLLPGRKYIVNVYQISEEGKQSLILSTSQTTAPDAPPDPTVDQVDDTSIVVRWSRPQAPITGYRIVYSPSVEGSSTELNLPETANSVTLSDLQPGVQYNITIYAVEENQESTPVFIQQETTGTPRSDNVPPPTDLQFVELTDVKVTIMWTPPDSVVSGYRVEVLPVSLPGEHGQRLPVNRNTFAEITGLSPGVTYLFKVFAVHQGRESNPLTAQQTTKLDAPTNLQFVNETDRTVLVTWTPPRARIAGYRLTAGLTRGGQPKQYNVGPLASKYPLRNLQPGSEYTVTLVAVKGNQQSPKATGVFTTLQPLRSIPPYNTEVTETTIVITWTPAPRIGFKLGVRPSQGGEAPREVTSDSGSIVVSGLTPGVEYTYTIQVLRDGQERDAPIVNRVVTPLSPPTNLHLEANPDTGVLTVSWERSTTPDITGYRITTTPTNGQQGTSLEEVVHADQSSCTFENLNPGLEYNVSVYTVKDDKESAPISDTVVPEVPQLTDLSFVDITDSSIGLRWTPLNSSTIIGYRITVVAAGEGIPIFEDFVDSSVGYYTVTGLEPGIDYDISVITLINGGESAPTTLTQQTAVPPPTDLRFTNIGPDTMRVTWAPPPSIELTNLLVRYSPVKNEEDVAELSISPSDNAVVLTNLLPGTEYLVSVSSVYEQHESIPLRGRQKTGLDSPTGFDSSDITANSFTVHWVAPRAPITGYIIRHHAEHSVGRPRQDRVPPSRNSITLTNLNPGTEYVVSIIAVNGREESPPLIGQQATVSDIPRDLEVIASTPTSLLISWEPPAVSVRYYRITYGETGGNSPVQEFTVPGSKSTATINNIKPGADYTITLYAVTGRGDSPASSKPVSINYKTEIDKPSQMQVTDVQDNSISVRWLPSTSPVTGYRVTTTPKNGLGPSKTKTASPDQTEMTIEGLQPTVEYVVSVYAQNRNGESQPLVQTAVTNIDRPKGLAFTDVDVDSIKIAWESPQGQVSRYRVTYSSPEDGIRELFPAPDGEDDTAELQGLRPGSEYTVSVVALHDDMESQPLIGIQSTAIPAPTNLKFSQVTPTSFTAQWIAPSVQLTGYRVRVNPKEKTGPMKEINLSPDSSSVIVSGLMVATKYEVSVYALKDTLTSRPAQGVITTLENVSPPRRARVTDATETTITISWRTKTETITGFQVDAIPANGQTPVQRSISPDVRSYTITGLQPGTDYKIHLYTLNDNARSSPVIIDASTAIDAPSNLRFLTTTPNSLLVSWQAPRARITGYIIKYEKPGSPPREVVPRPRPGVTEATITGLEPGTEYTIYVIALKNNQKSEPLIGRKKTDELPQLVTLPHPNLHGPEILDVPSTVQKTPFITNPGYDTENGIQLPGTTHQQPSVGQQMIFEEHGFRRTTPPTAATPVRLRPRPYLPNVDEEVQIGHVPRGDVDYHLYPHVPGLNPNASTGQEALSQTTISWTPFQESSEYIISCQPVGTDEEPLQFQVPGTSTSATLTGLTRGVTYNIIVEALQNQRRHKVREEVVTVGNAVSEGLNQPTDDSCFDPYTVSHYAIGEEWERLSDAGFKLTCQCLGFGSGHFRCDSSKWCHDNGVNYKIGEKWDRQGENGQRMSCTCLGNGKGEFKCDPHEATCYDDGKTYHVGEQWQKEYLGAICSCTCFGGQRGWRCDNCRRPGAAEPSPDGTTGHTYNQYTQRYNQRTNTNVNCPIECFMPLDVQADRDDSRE

This passage reports binding results from US20210275695A1 (CASE WESTERN RESERVE UNIVERSITY, published 2021).

No constants are given. Whether binding was seen depends on the method and setting. Some binding calls cover weakened binding; strength is not graded here.

B1: l-ZD2-Cy5 (Cy5 labeled linear ZD2, TVRTSAD) (peptide)
peptide: TVRTSAD
modifications: Cy5 label; the site and the linker are not described in Example 2
As to B1, the binding result was “binds”.
